Assay results as given in publication PMC7255803.
These are yes or no findings as the source states them, for the method shown. In cells and extracts the contact can be indirect. A yes stands for co-enrichment or nearness to the bait. Other partners may have been found.

Biological target: MUT-16::GFP::3xFLAG (C. elegans)
Experiment: affinity purification with mass spectrometry; separate immunoprecipitations with anti-GFP (RQ2) and anti-FLAG (M2) affinity matrix from lysate of ~500,000 adult worms with MUT-16::GFP::3xFLAG; N2 wild type as control; IP buffer 50 mM Tris-Cl pH 7.4, 100 mM KCl, 2.5 mM MgCl2, 0.1% Igapal CA-630; 4°C, 2 hr, washed 10 times

B1: MATH-33 (protein, UniProt Q7JKC3 1-1135)
chain: MQCSPDPEDLLIVPTHDIPSYDESLDPFGPEGHLSLDIDCFSKFMSRSDNRIMSKPIIVRGIPWRILAICRNQQGSRHSMNSRVNRSNFNFGFFLQCNNDELLQKRGMWRCYGTAVLEVLNADGPSIQKKIHHSFHNTEVDWGFSNYDQYDTLCNPKDGYVVNDTIKLRCRFTADVPTGANYMWDSKRHTGCIGLRNQGATCYMNSILQSFYFTTGFRRAVYNMDVGTEPNESNIVLAMQRVFYELQMASEAVETNSLTRAFGWDKLDAFNQHDVQEFCRVLLDNLETKMKGTSEEKSIPNLFRGNMKSYIKCLDVDYESSRTESFYDVQLNVLGMDSLERAFEAYTTSEILDDENKYDAGDHGLQRAEKGVKFVELPPILHVQLMRFQYCGVEQKINERFSFPEKMNLASCCELGPMLTEEDCVYSLHAVLVHSGEFHGGHYVTYINVNLHESAVDPTSSAKWCKFDDDVVSRTTTDDAIVSNFGGEKTMNSSAYMLVYVRDNAIDQFLAPIPDSQIPQSVSRTFEMERLHRNREKKKLEEEQLCMGIVLVTPDIVASNHSFDLVDQSIVHDSIPHETVWKHMFTAELYQFVHDRLFEKSAMQKIDMFDSDDEARQARRDNLRRIKSKKFNFRLWRMTDSYSLERTTQKLTSRLRPSEFIDCKTDTRLDTLLSQDFETIYVEFSNNIERPLCEYDTARDLLFFVKYYDTMTDKFTIIGHTMFDCHKRFNLYRSMLCEMIGLPADTELKYYMEHAASYLELVDLTQNYSIGRLVEEQDGGILVVEKVETSTSTQNAKQKMNELFLDVEVEFVQSFYNKKPEEEPFEQFVKRICLDDKLFTVAEEIGARLNVDPKKVLIWTRVSGSRFEPFFDDYMLNTCKGLMTRPVHDPRAYKRYRVQYAIMPFDIDEISKHRIQTKLFWQLPNGHVEELTLFPLKEGTVIDIINEAKRYYPFVEGGSGKFRLLQIGAPPLSNQRVYQIYGENTLISDLDQRTMYKLVSSQALHCRLEEVPIDELDMSPGEFLCPVVHFDREPTKLFGLSFVIKIRNNELMTEVRDRLRRKLNDVSDADFAKYKFALLSRDKLQLCRTIEFNNGEKVNLADMANQTTGVPQVYIGLDHKSPIQHSSEAAIRILN
With B1 as the binder, how does the binding read?
Its binding is “binds”.

B2: SIMR-1 (siRNA-defective and mortal germline) (protein, UniProt O01477 1-691)
chain: MSNEKQQWDDAYCLAEEMHDAGRPFKREELNIADQFICSRFSTIFEYDPYKDTYGFRNQELTHAIPVKSKCRHISDVDILELKKNTANADIRFPSYLNICPVYAMHPFTVLAFDLSKPVPMGMNASMENAAPNMKSPTEAEITPGTIYIFKHRDNKCYRCVILFEDGDNNVSDADRKYMVAFLDTPQVVSVKLKTLFHLGKFTIESYPCALYCCRAVGILEIRKDFGADLNGQINEFYKDKVKRKSGVHALIYKKDDRGDKLIFDCPSILGTSMTMALEIKDVIGHRSVAENDPTALSYDELVSKQLPTVDIDDHNSSVVLDLEESVIAQELGSTNGADCPCNNDNIDDFMQSQRQNPLDNNRDNWDRINESRSSMQSFAINQSQAITANPTPQPTFDESSGEVQTIPESINNLALNGRYLEDGRGTEEIREERSVESRQIGNQVVSQASCNYLEARQNSTQTANAESVCAIISESHAALPTDIQVIPSQHVLNENNHTVLPSVAPIIRNATGHSHIFGRQIPSPAFRRESLSSGNSIQVATFAATTGPCGSNTSRPTAQNTANSSINQDMSISNSSTNARLITIAQDNLNDTENWPNSEREQSATEMESGAEATTNSAVDEFAQVSDDMKGLADSMINFLRLTANSNNQDAFKANIFAMELISTKIPNQLTKRFFTLKIAEAKSLAEGFN
Which binding does the source give for B2 here?
The binding was “binds”.

B3: HGO-1 (protein, UniProt Q9Y041 1-437)
chain: MSEFDELKYLTGFGNEHATSDPRVPDALPVGQNSPQKCSHGLYAEQLSGTAFTAPRSQNQRSWLYRIRPSVIHRPFEAMKENDQHWTNNFSSIPPNPNQYRWNPFPLPTKEGVTFVDNLYTVCGGGDVISRTGLAIHQFSCNASMEHTAMYNSDGDFLIVPQQGALEITTEFGRLLVNPQEIAVIPQGIRFSVAVRGPSRGYILEVYGTHFQLPDLGPIGANGLANPRDFEAPVAWFEDLDVEFTIINKYQGSWFQAKQGHSPFDVVGWHGNYVPYKYDLKKFMVINTVSFDHCDPSIFTVLTAPSVKHGTAIADFVIFPPRWGCADNTFRPPYYHRNCMSEYMGLITGCYEAKEGGFKPGGGSLHSMMTPHGPDFNCFEMASNADLKPQRVAEGTMSFMFESSLNMAITNWAVYQNVDKDYYKDWQPLKKHFTMPK
How did the binding turn out when B3 was run?
Its binding is “binds”.
